Test results published in patent US9174953B2, “Bicyclic thiazoles as allosteric modulators of mGluR5 receptors” (Janssen Pharmaceutica NV, priority 2009, dated 2015).
Some of these results come from one statement about several compounds together.

Amino acid sequences for entries named in this document (tags omitted). Residues count along the entry.
UniProt P41594, 21-1212: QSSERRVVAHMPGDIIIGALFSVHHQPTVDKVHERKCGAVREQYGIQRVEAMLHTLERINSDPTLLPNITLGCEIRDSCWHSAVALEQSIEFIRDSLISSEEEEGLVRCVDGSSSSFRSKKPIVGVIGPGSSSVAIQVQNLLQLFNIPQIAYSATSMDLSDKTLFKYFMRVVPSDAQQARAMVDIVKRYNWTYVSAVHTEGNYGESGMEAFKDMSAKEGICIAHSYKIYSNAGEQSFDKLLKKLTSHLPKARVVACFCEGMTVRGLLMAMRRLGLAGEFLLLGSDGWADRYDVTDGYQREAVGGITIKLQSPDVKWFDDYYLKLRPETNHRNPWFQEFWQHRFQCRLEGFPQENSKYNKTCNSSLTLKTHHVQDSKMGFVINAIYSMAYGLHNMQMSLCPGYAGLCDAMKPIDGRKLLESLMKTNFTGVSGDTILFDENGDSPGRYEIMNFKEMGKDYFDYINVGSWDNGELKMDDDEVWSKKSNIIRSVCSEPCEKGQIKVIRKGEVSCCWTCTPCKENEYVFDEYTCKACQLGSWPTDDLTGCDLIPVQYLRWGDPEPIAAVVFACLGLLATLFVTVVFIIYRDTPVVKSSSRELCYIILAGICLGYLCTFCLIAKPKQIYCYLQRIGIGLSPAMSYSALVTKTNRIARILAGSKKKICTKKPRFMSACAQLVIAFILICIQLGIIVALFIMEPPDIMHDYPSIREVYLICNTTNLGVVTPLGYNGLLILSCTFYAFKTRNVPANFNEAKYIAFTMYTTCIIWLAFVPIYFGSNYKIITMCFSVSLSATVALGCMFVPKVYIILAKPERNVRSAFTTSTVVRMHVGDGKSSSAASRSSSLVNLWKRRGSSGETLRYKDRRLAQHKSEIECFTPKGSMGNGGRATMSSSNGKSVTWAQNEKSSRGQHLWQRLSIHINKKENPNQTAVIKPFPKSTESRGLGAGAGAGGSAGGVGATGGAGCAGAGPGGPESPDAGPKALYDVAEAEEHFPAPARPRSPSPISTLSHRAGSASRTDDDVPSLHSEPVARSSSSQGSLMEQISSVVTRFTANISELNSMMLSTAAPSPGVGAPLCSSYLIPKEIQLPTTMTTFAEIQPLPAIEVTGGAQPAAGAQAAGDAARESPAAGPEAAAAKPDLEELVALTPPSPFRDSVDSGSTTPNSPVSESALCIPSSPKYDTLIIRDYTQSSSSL

These molecules were tested against mGluR5 (Homo sapiens, UniProt P41594) (assay: similar in vitro assays). Conditions: estimated.
Format: cell-based

Compound	pEC50
O=C1NCCc2nc(Oc3cccc(Cl)c3)sc21 [Compound 16]	< 4.52
N#Cc1cccc(Oc2nc3c(s2)C(=O)NCC3)c1 [Compound 19]	< 4.52
O=C1c2sc(NCc3ccccc3)nc2CCN1c1ccc(F)cc1 [Compound 22]	< 4.52
N#Cc1ccc(Oc2nc3c(s2)C(=O)NCC3)cc1 [Compound 18]	< 4.52
COc1cccc(Oc2nc3c(s2)C(=O)NCC3)c1 [Compound 17]	< 4.52
O=C1c2sc(OCc3ccncc3)nc2CCN1c1ccc(F)cc1 [Compound 21]	< 4.52
O=C1c2sc(OCc3ccccn3)nc2CCN1c1ccc(F)cc1F [Compound 24]	< 4.52
CN1CCc2nc(-c3noc(-c4cccc(F)c4)n3)sc2C1=O [Compound 20]	< 4.52
O=C1NCCc2nc(Oc3cccc(OC(F)(F)F)c3)sc21 [Compound 14]	< 4.52
O=C1c2sc(OCc3cccnc3)nc2CCN1c1ccc(F)cc1F [Compound 23]	< 4.52
O=C1NCCc2nc(Oc3ccccc3F)sc21 [Compound 13]	< 4.52
O=C1NCCc2nc(Oc3cccc(F)c3)sc21 [Compound 15]	< 4.52
